Test results: PMC4066752

The chains behind the UniProt entries cited, without tags or fusion partners. Where a name states a change or a piece, a line headed by the entry shows the natural chain unless it says otherwise.
UniProt P01106: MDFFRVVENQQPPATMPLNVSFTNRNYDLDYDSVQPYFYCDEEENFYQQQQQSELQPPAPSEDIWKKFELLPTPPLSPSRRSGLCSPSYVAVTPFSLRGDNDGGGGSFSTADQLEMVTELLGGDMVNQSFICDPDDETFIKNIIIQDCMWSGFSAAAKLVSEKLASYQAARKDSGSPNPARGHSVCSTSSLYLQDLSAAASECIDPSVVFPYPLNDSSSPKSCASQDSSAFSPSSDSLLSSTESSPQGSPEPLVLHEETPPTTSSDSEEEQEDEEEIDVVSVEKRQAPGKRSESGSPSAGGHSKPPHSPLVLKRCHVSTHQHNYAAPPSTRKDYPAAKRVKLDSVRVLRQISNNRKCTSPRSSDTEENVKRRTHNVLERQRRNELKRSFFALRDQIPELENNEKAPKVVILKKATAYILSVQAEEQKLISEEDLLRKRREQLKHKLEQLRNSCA
UniProt Q9UBL3: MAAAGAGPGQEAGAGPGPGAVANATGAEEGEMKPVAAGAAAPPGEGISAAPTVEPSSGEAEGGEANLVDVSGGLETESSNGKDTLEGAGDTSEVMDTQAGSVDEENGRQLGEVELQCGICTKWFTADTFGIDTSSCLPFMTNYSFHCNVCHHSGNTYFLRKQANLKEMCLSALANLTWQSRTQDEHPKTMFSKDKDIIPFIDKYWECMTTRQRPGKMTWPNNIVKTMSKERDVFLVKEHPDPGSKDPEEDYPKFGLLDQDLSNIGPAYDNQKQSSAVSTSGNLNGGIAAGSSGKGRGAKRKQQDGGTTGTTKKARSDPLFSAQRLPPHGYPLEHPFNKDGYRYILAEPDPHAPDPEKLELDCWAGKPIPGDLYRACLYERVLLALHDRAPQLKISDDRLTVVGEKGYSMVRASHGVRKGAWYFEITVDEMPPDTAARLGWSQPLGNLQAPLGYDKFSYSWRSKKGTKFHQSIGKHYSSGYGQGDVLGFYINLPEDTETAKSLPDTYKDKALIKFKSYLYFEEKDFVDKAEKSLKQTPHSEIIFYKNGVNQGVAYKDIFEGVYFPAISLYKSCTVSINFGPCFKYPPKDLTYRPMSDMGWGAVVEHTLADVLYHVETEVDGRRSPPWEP
UniProt Q15291: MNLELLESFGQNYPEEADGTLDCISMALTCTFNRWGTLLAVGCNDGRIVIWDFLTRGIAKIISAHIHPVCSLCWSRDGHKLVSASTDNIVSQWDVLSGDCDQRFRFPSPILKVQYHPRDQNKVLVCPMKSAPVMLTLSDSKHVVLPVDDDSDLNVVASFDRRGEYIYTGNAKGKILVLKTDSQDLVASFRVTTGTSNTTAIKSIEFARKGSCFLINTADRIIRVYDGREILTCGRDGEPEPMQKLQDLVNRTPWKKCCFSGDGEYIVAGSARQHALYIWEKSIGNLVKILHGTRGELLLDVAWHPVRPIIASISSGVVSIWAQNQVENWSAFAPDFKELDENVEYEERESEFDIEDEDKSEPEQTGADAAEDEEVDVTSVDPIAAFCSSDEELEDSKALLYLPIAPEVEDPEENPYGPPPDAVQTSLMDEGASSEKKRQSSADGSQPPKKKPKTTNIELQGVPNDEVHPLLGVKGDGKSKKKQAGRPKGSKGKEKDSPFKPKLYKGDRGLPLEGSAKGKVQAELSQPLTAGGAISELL

Tests used:
MYCΔ265-367 = MYCΔ265-367 (UniProt P01106); assay: co-IP; HEK293 cells, transient expression of the respective MYC or ASH2L fragments; lysates; western blot
GST-MYC(263-439) = GST-MYC(263-439) (UniProt P01106); assay: pull-down; pull-down of WDR5 and RbBP5 with MYC fragments (Supplementary Figure S3A); source of WDR5 and RbBP5 not told

| Substance | binding (MYCΔ265-367) | binding (GST-MYC(263-439)) |
| --- | --- | --- |
| ASH2L (in HEK293 lysates, partner of the MYC fragments) (from UniProt Q9UBL3 1-628) | binds | – |
| RbBP5 (pull-down of Supplementary Figure S3A) (from UniProt Q15291 1-538) | – | no binding |

Results are given in words; binding and its absence hold for the method and conditions named. In cells and extracts the contact can be indirect. For some assays here: Binding can be weak; no strength is given.
